This passage reports NP40-soluble protein abundance results from the supplement of paper PMC6411743.

Protein sequences, listed by entry. Tags and fused reporters are not part of them. Lines headed by an entry give the natural chain unless they say otherwise; changes in a name come on top.
UniProt P16219: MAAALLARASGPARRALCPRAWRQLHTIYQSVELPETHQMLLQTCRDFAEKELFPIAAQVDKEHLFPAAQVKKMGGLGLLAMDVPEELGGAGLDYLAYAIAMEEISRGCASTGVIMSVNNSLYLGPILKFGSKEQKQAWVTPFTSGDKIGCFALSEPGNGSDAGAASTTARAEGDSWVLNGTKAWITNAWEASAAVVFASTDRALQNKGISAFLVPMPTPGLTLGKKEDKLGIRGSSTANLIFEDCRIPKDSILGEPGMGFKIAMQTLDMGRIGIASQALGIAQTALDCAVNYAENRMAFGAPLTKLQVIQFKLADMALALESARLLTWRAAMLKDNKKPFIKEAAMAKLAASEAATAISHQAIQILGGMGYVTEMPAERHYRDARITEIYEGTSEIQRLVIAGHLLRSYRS
UniProt P14859: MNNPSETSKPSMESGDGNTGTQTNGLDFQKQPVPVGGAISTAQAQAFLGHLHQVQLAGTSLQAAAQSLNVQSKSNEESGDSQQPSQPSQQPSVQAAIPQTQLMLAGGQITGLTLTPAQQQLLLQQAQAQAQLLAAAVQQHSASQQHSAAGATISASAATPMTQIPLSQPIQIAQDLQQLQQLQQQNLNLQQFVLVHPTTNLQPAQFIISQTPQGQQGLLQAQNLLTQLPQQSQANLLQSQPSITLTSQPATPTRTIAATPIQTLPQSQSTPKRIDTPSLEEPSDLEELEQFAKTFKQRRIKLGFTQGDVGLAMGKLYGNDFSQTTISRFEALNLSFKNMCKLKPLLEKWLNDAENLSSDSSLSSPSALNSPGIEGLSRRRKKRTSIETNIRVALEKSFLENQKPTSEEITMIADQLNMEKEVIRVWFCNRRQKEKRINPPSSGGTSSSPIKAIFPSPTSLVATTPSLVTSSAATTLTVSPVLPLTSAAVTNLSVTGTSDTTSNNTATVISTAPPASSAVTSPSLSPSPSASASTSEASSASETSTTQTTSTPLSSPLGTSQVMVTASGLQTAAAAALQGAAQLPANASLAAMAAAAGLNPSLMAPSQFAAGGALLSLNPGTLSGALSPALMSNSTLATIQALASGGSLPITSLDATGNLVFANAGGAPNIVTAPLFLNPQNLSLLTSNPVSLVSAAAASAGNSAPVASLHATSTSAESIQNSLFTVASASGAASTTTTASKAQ
UniProt P26583: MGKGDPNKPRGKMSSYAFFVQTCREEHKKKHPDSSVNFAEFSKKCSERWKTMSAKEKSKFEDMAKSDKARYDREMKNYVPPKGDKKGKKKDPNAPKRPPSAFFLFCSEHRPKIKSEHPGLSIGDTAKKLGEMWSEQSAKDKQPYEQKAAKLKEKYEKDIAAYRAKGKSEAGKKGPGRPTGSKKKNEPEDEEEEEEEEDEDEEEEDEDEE
UniProt P19022: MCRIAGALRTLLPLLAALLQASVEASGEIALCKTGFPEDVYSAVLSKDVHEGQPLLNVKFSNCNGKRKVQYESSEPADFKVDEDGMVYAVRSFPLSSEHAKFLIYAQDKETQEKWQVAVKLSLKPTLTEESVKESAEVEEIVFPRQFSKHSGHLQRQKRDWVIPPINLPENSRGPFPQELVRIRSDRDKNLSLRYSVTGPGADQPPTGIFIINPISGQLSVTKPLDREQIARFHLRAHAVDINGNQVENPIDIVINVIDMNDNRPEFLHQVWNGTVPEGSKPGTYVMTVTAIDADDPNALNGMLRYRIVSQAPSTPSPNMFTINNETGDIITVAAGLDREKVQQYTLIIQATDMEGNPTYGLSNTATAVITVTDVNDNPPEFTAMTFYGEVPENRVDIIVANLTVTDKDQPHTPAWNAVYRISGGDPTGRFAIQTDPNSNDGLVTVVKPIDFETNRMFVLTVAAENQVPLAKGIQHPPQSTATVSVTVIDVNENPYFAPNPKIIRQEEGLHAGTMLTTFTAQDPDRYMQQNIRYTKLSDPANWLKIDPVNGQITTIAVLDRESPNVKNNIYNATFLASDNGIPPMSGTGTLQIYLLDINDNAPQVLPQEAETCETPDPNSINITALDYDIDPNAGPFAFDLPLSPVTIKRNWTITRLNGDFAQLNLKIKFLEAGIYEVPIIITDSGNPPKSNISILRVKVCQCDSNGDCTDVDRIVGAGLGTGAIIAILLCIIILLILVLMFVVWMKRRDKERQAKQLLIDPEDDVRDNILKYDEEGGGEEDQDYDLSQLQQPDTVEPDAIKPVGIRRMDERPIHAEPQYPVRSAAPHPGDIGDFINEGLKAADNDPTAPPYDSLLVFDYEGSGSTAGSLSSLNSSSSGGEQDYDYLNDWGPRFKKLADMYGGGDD
UniProt P12955: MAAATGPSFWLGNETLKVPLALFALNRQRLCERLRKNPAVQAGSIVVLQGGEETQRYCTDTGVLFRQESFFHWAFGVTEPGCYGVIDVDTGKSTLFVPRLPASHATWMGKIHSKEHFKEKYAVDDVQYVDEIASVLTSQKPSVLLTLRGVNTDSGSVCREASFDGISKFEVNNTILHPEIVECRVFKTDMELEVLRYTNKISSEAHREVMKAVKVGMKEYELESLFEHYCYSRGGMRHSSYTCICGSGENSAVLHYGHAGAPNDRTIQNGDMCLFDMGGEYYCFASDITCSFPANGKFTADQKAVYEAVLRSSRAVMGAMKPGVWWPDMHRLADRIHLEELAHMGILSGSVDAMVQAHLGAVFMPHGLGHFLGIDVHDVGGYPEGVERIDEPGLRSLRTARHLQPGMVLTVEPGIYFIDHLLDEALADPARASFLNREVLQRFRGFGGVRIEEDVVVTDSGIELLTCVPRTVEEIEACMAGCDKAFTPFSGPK

± gives the standard deviation of the averaged measurements. The list shows a part of the results.

Compound in the assay: Nc1nc2c(ncn2[C@@H]2O[C@H](COP(=O)(O)OP(=O)(O)OP(=O)(O)O)[C@@H](O)[C@H]2O)c(=O)[nH]1 [guanosine triphosphate]
As to the kind of experiment: NP40-soluble protein abundance relative to vehicle (solubility fold change) (ratio); higher = more soluble protein in presence of GTP. How it is done: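 Solubility proteome profiling in Jurkat crude lysate. Lysate was treated with Mg-GTP (0.1-10 mM) for 10 min at room temperature and 3 min at 37 °C, then solubilised with 0.8% NP40 and benzonase, followed by ultracentrifugation. Proteins were quantified by TMT10 LC-MS/MS; the value is the NP40-soluble abundance relative to the NP40-processed vehicle, from 3 independent experiments.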

For ACADS (UniProt P16219), the NP40-soluble protein abundance is, setting by setting: (concentration: 0.1mM) 1.05 ± 0.036; (concentration: 0.5mM) 1.06 ± 0.047; (concentration: 1mM) 1.02 ± 0.019; (concentration: 2mM) 0.993 ± 0.011; (concentration: 4mM) 1.02 ± 0.045; (concentration: 6mM) 0.961 ± 0.035. For the same target, the NP40-soluble protein abundance (concentration: 8mM) amounted to 0.964 ± 0.044 and the NP40-soluble protein abundance (concentration: 10mM) is 0.918 ± 0.054.

For the target UniProt P14859 and related entries, the NP40-soluble protein abundance was 1.01 ± 0.12 (concentration: 0.1mM); 0.91 ± 0.12 (concentration: 0.5mM); 1.01 ± 0.14 (concentration: 1mM); 1.04 ± 0.24 (concentration: 2mM); 1.02 ± 0.28 (concentration: 4mM); 1.03 ± 0.26 (concentration: 6mM). Further, the NP40-soluble protein abundance runs as follows: (concentration: 8mM) 1.01 ± 0.26; (concentration: 10mM) 1.04 ± 0.2.

Consider HMGB2 (UniProt P26583), for which the NP40-soluble protein abundance is, setting by setting: (concentration: 0.1mM) 0.831 ± 0.065; (concentration: 0.5mM) 0.872 ± 0.043; (concentration: 1mM) 1.08 ± 0.096; (concentration: 2mM) 1.1 ± 0.047; (concentration: 4mM) 1.07 ± 0.066; (concentration: 6mM) 1.13 ± 0.031. The NP40-soluble protein abundance turned out to be 1.08 ± 0.043 (concentration: 8mM) and 1.38 ± 0.25 (concentration: 10mM).

For UniProt P19022 and related entries, the NP40-soluble protein abundance reads like this: (concentration: 0.1mM) 1.11 ± 0.085; (concentration: 0.5mM) 1.05 ± 0.12; (concentration: 1mM) 1.01 ± 0.16; (concentration: 2mM) 1.14 ± 0.11; (concentration: 4mM) 1.09 ± 0.095; (concentration: 6mM) 1.16 ± 0.24. For the same target, the NP40-soluble protein abundance reads like this: (concentration: 8mM) 0.929 ± 0.075; (concentration: 10mM) 1.05 ± 0.056.

Consider PEPD (UniProt P12955), for which the NP40-soluble protein abundance by setting is: (concentration: 0.1mM) 1.1 ± 0.12; (concentration: 0.5mM) 1.13 ± 0.11; (concentration: 1mM) 0.974 ± 0.067; (concentration: 2mM) 0.989 ± 0.11; (concentration: 4mM) 0.969 ± 0.092; (concentration: 6mM) 0.941 ± 0.062. In addition, the NP40-soluble protein abundance stood at 0.893 ± 0.062 (concentration: 8mM) and 0.853 ± 0.099 (concentration: 10mM).
